Laboratory results reported in PubChem BioAssay AID258 (DTP/NCI, 2004).
The list is a part of this screen's results and no random one: it is rich in T/C values a quarter to a half above the control, in often repeated tests (any T/C) and in doses without a T/C. Further doses and runs are listed elsewhere. T/C: endpoint of the treated group in % of that of the vehicle group. Some doses have a count of surviving animals in place of a T/C: the source holds a T/C of zero for them, seemingly a mark for toxic or unscored doses. Some doses without a T/C left all or most animals alive at the check, yet need not have been tolerated: the source hardly ever lists a survival T/C far under the control, and the zero likely stands for such cases as well. Counts of survivors are from the toxicity check (mostly the fifth day) where no day follows; animals may have died later. Schedule codes are those of the source, taken here to give the interval after Q, in days (D) or hours (H), and the number of doses after X. Some entries hold several experiments; the results are listed from low to high. Some schedules carry Z or #; the key to these is not given. For survival time, the PubChem record calls one and a half times the control and up active, and a quarter to a half above the control has no call in these data; cut-offs in other NCI protocols can differ. Some T/C values carry the count of animals alive at the toxicity check (mostly the fifth day); where none is given, no animal had died by that day. Brackets with × stand for listed records that agree.

System: CD2F1 mice, L1210 leukemia sc, survival T/C
Assay: NCI In Vivo Anticancer Drug Screen. Data for tumor model L1210 Leukemia (subcutaneous) in CD2F1 (CDF1) mice
Conditions: T/C endpoint: median survival time, higher T/C = longer survival
In short: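 Mice with transplanted tumor dosed; survival/tumor size read; T/C vs vehicle controls.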

[1] = dose: 200.0 mg/kg/injection, schedule: Q01DX009 (ip), vehicle: saline

Q: What does the source list for `CCOS(C)(=O)=O`?
A: survivor count (dose: 14.0 mg/kg/injection, schedule: Q01DX Z (sc), vehicle: saline): 1 of 10; survivor count (dose: 23.0 mg/kg/injection, schedule: Q01DX Z (sc), vehicle: saline): 0 of 10; survivor count (dose: 39.0 mg/kg/injection, schedule: Q01DX Z (sc), vehicle: saline): 0 of 10; survivor count (dose: 65.0 mg/kg/injection, schedule: Q01DX Z (sc), vehicle: saline): 2 of 10; survivor count (dose: 108.0 mg/kg/injection, schedule: Q01DX Z (sc), vehicle: saline): 1 of 10; survivor count (dose: 180.0 mg/kg/injection, schedule: Q01DX Z (sc), vehicle: saline): 2 of 10; survivor count (dose: 300.0 mg/kg/injection, schedule: Q01DX Z (sc), vehicle: saline): 1 of 10

Q: `N#Cc1c(-c2ccc(F)cc2)c(-c2ccc(F)cc2)nn(CCO)c1=O` was tested. Which T/C (dose: 500.0 mg/kg/injection, schedule: Q01DX005 (ip), vehicle: distilled water + Tween-80 + alcohol) did it give?
A: The T/C was 126 % of control.

Q: `C[C@]12C=CC(=O)C=C1CC[C@@H]1[C@@H]2C(=O)C[C@@]2(C)[C@H]1CC[C@]2(O)C(=O)CO` was tested. Which T/C (dose: 65.0 mg/kg/injection, schedule: Q#A X Z (sc), vehicle: water) did it give?
A: Its T/C is 131 % of control.

Q: And the T/C (dose: 108.0 mg/kg/injection, schedule: Q01DX Z (sc), vehicle: steroid suspending solution)?
A: Its T/C is 136 % of control.

Q: What about the T/C (dose: 108.0 mg/kg/injection, schedule: Q01DX Z (sc), vehicle: water) of the same compound?
A: Its T/C is 136 % of control.

Q: And the T/C (dose: 108.0 mg/kg/injection, schedule: Q#A X Z (sc), vehicle: water)?
A: The T/C was 127 % of control.

Q: What about the T/C (dose: 180.0 mg/kg/injection, schedule: Q01DX Z (sc), vehicle: steroid suspending solution) of the same compound?
A: The T/C was 145 % of control.

Q: And the T/C (dose: 180.0 mg/kg/injection, schedule: Q#A X Z (sc), vehicle: water)?
A: Its T/C is 131 % of control.

Q: And the T/C (dose: 300.0 mg/kg/injection, schedule: Q01DX Z (sc), vehicle: steroid suspending solution)?
A: Its T/C is 127 % of control.

Q: And the T/C (dose: 300.0 mg/kg/injection, schedule: Q01DX Z (sc), vehicle: water)?
A: Its T/C is 136 % of control.

Q: What about the T/C (dose: 300.0 mg/kg/injection, schedule: Q02DX Z (sc), vehicle: water) of the same compound?
A: Its T/C is 145 % of control.

Q: What about the T/C (dose: 300.0 mg/kg/injection, schedule: Q#A X Z (sc), vehicle: water) of the same compound?
A: Its T/C is 131 % of control.

Q: What about the T/C (dose: 500.0 mg/kg/injection, schedule: Q01DX Z (sc), vehicle: steroid suspending solution) of the same compound?
A: Its T/C is 136 % of control.

Q: What about the T/C (dose: 500.0 mg/kg/injection, schedule: Q01DX Z (sc), vehicle: water) of the same compound?
A: Its T/C is 145 % of control.

Q: What about the T/C (dose: 500.0 mg/kg/injection, schedule: Q02DX Z (sc), vehicle: water) of the same compound?
A: The T/C was 136 % of control.

Q: And the T/C (dose: 840.0 mg/kg/injection, schedule: Q01DX Z (sc), vehicle: steroid suspending solution)?
A: Its T/C is 127 % of control.

Q: What about the T/C (dose: 840.0 mg/kg/injection, schedule: Q01DX Z (sc), vehicle: water) of the same compound?
A: Its T/C is 127 % of control.

Q: And the T/C (dose: 840.0 mg/kg/injection, schedule: Q02DX Z (sc), vehicle: water)?
A: The T/C was 127 % of control.

Q: And the T/C (dose: 840.0 mg/kg/injection, schedule: Q#A X Z (sc), vehicle: water)?
A: The T/C was 127 % of control.

Q: And the T/C (dose: 1400.0 mg/kg/injection, schedule: Q02DX Z (sc), vehicle: water)?
A: Its T/C is 127 % of control.

Q: For `CO[C@H](/C(C)=C/C=C/C(C)=C/c1coc(C)n1)[C@H](C)[C@H]1C[C@@H](O)[C@@]2(C)O[C@H]2/C=C/[C@@H](C)[C@@H]2C[C@@H](CC(=O)O2)C[C@H]2O[C@@H]2C(=O)O1`, which T/C (dose: 0.5 mg/kg/injection, schedule: Q01DX009 (ip), vehicle: Klucel (hydroxypropylcellulose) (HPC)) is on record?
A: The T/C was 142 % of control.

Q: What about the survivor count (dose: 2.0 mg/kg/injection, schedule: Q01DX009 (ip), vehicle: Klucel (hydroxypropylcellulose) (HPC)) of the same compound?
A: Its survivor count is 6 of 6.

Q: And the survivor count (dose: 4.0 mg/kg/injection, schedule: Q01DX009 (ip), vehicle: Klucel (hydroxypropylcellulose) (HPC))?
A: The survivor count was 2 of 6.

Q: For `COc1cc([C@@H]2c3cc4c(c(O)c3C[C@H]3COC(=O)[C@@H]32)OCO4)cc(OC)c1OC`, which survivor count (dose: 5.0 mg/kg/injection, schedule: Q01DX Z (sc), vehicle: methylcellulose (MC)) is on record?
A: The survivor count was 0 of 10.

Q: And the survivor count (dose: 8.4 mg/kg/injection, schedule: Q01DX Z (sc), vehicle: methylcellulose (MC))?
A: The survivor count was 0 of 10.

Q: What about the survivor count (dose: 14.0 mg/kg/injection, schedule: Q01DX Z (sc), vehicle: methylcellulose (MC)) of the same compound?
A: Its survivor count is 2 of 10.

Q: And the survivor count (dose: 23.0 mg/kg/injection, schedule: Q01DX Z (sc), vehicle: methylcellulose (MC))?
A: The survivor count was 0 of 10.

Q: And the survivor count (dose: 39.0 mg/kg/injection, schedule: Q01DX Z (sc), vehicle: methylcellulose (MC))?
A: The survivor count was 3 of 10.

Q: And the survivor count (dose: 65.0 mg/kg/injection, schedule: Q01DX Z (sc), vehicle: methylcellulose (MC))?
A: The survivor count was 3 of 10.

Q: What about the survivor count (dose: 108.0 mg/kg/injection, schedule: Q01DX Z (sc), vehicle: methylcellulose (MC)) of the same compound?
A: The survivor count was 2 of 10.

Q: What does the source list for `FC(F)(F)c1nc2nc(Cl)c(Cl)nc2[nH]1`?
A: survivor count (dose: 100.0 mg/kg/injection, schedule: Q04DX003 (ip), vehicle: saline with Tween-80): 3 of 6; survivor count (dose: 150.0 mg/kg/injection, schedule: Q04DX003 (ip), vehicle: saline with Tween-80): 0 of 6

Q: For `Nc1c(/C=C/c2cc3cc(C4=NCCN4)ccc3o2)[nH]c2cc(C3=NCCN3)ccc12`, which survivor count (dose: 50.0 mg/kg/injection, schedule: Q01DX009 (ip), vehicle: Klucel (hydroxypropylcellulose) (HPC)) is on record?
A: Its survivor count is 4 of 10.

Q: How did the T/C (dose: 32.0 mg/kg/injection, schedule: Q01DX009 (sc), vehicle: saline) turn out when `N[C@H](C(=O)O)[C@H]1ON=C(Cl)[C@@H]1O` was run?
A: The T/C was 141 % of control.

Q: What about the T/C (dose: 128.0 mg/kg/injection, schedule: Q01DX009 (sc), vehicle: saline) of the same compound?
A: Its T/C is 139 % of control.

Q: And the T/C (dose: 256.0 mg/kg/injection, schedule: Q01DX009 (sc), vehicle: saline)?
A: The T/C was 132 % of control.

Q: What about the T/C (dose: 512.0 mg/kg/injection, schedule: Q01DX009 (sc), vehicle: saline) of the same compound?
A: The T/C was 126 % of control.

Q: How did the T/C (dose: 12.5 mg/kg/injection, schedule: Q01DX009 (ip), vehicle: saline, evaluated on day 30) turn out when `CN1CCN(c2ccc3nc(-c4ccc5nc(-c6ccc(O)cc6)[nH]c5c4)[nH]c3c2)CC1` was run?
A: Its T/C is 111 and 113 % of control (2×).

Q: What about the T/C (dose: 12.5 mg/kg/injection, schedule: Q01DX009 (ip), vehicle: saline, evaluated on day 60) of the same compound?
A: Its T/C is 107 % of control.

Q: What about the T/C (dose: 25.0 mg/kg/injection, schedule: Q01DX009 (ip), vehicle: saline, evaluated on day 30) of the same compound?
A: The T/C was 111, 112, 125 % of control.

Q: And the T/C (dose: 25.0 mg/kg/injection, schedule: Q01DX009 (ip), vehicle: saline, evaluated on day 60)?
A: Its T/C is 110 % of control.

Q: What about the T/C (dose: 50.0 mg/kg/injection, schedule: Q01DX009 (ip), vehicle: saline, evaluated on day 30) of the same compound?
A: Its T/C is 126, 143, 146 % of control.

Q: What about the T/C (dose: 50.0 mg/kg/injection, schedule: Q01DX009 (ip), vehicle: saline, evaluated on day 60) of the same compound?
A: The T/C was 124 % of control.

Q: What about the survivor count (dose: 56.0 mg/kg/injection, schedule: Q03HX008 (ip), vehicle: saline) of the same compound?
A: The survivor count was 0 of 10.

Q: What about the survivor count (dose: 75.0 mg/kg/injection, schedule: Q03HX024 (ip), vehicle: saline) of the same compound?
A: The survivor count was 0 of 10.

Q: And the T/C (dose: 100.0 mg/kg/injection, schedule: Q01DX009 (ip), vehicle: saline, evaluated on day 30)?
A: Its T/C is 146, 146 [5 of 6 alive], 146 % of control [9 of 10 alive].

Q: What about the T/C (dose: 100.0 mg/kg/injection, schedule: Q01DX009 (ip), vehicle: saline, evaluated on day 60) of the same compound?
A: Its T/C is 129 % of control.

Q: And the survivor count (dose: 112.0 mg/kg/injection, schedule: Q03HX008 (ip), vehicle: saline)?
A: The survivor count was 0 of 10.

Q: And the T/C [1]?
A: Its T/C is 146 % of control.

Q: What about the survivor count [1] of the same compound?
A: Its survivor count is 1 of 6, 6 of 10, 7 of 10.

Q: What about the survivor count (dose: 225.0 mg/kg/injection, schedule: Q01DX001 (ip), vehicle: suspension in saline) of the same compound?
A: Its survivor count is 6 of 10.

Q: And the survivor count (dose: 225.0 mg/kg/injection, schedule: Q03HX008 (ip), vehicle: saline)?
A: Its survivor count is 0 of 10.

Q: And the survivor count (dose: 300.0 mg/kg/injection, schedule: Q04DX003 (ip), vehicle: saline)?
A: The survivor count was 3 of 10.

Q: And the survivor count (dose: 450.0 mg/kg/injection, schedule: Q01DX001 (ip), vehicle: suspension in saline)?
A: The survivor count was 0 of 10.

Q: And the survivor count (dose: 600.0 mg/kg/injection, schedule: Q04DX003 (ip), vehicle: saline)?
A: The survivor count was 0 of 10.

Q: And the survivor count (dose: 900.0 mg/kg/injection, schedule: Q01DX001 (ip), vehicle: suspension in saline)?
A: The survivor count was 0 of 10.

Q: What about the survivor count (dose: 1800.0 mg/kg/injection, schedule: Q01DX001 (ip), vehicle: suspension in saline) of the same compound?
A: Its survivor count is 0 of 10.
